Data published in publication doi:10.1101/676478.

System: Tbx2a
Experiment: EMSA
Conditions: 5 mM MgCl2; protein in a lysate after overexpression

“TTACGTACAAGGTGTGAATCCAATTTGTAGGGATTGAGGATT (double strand) [RH2 LCR]”: binds.

For at least one entry, the source does not settle the construct or the ends of the probe. Results from cells or extracts need not show a direct contact.
